{
  "source": "patent US20160194299A1",
  "about": "(priority 2013, published 2016)",
  "key": {"[1]": {"system": "exponentially growing virulent Mtb", "assay_type": "cell-based, Mycobacterium tuberculosis"}, "[2]": {"system": "non-replicating Mtb", "assay_type": "cell-based, Mycobacterium tuberculosis"}},
  "note": "At least one structure is not confirmed: it was looked up by name or label, or the drawing left a doubt.",
  "data": [
    {"smiles": "CO[C@H]1/C=C/O[C@@]2(C)Oc3c(C)c(O)c4c(O)c(c(/C=N/N5CCN(C)CC5)c(O)c4c3C2=O)NC(=O)/C(C)=C\\C=C\\[C@H](C)[C@H](O)[C@@H](C)[C@@H](O)[C@@H](C)[C@H](OC(C)=O)[C@@H]1C", "note": "[RIF, rifampicin]", "values": [
      {"measurement": "drop in CFU compared with TCA1", "setting": "[1]", "value": "comparable drop in CFU over the first seven days"},
      {"measurement": "bactericidal activity relative to TCA1", "setting": "[2]", "value": "less bactericidal activity than TCA1"}
    ]}
  ]
}
